Measurements taken from PubChem BioAssay AID330 (DTP/NCI, 2004).
The list shows only some results of the screen, not a fair sample: it gathers tests that were run many times, whatever their T/C, doses with no T/C, and many T/C values between a quarter and a half above the control. Further doses and runs are listed elsewhere. T/C: endpoint of the treated group in % of that of the vehicle group. Some entries give survivors of the animals treated and no T/C: the source holds a T/C of zero for them, seemingly a mark for toxic or unscored doses. Some survivor counts are full or nearly so, which does not show that the dose was tolerated: survival well below the control is almost never listed, so the zero probably covers shortened survival too. Counts of survivors are from the toxicity check (mostly the fifth day) where no day follows; animals may have died later. Schedules are NCI's codes, taken here to give the interval after Q, in days (D) or hours (H), and the number of doses after X. Some doses were run more than once; the values are given in rising order. For survival time, the PubChem record calls one and a half times the control and up active, and a quarter to a half above the control has no call in these data; cut-offs in other NCI protocols can differ. Some T/C values carry the count of animals alive at the toxicity check (mostly the fifth day); where none is given, no animal had died by that day.

Tested on: P388 leukemia ip, CD2F1 mice, survival T/C
Assay: NCI In Vivo Anticancer Drug Screen. Data for tumor model P388 Leukemia (intraperitoneal) in CD2F1 (CDF1) mice
Conditions: T/C endpoint: median survival time, higher T/C = longer survival
[1] = dose: 120.0 mg/kg/injection, schedule: Q01DX005 (ip), vehicle: saline with Tween-80
[2] = dose: 240.0 mg/kg/injection, schedule: Q01DX005 (ip), vehicle: saline with Tween-80
[3] = dose: 200.0 mg/kg/injection, schedule: Q01DX009 (ip), vehicle: saline with Tween-80
[4] = dose: 200.0 mg/kg/injection, schedule: Q01DX005 (ip), vehicle: saline with Tween-80
[5] = dose: 200.0 mg/kg/injection, schedule: Q01DX009 (ip), vehicle: Klucel (hydroxypropylcellulose) (HPC)
[6] = dose: 100.0 mg/kg/injection, schedule: Q01DX009 (ip), vehicle: saline
[7] = dose: 200.0 mg/kg/injection, schedule: Q01DX009 (ip), vehicle: saline
[8] = dose: 100.0 mg/kg/injection, schedule: Q04DX003 (ip), vehicle: saline

Q: `CC1(C)C2CCC1(C)C(O)C2N` (configuration not stated) was tested. Which survivor count [1] did it give?
A: 2 of 6 and 4 of 5

Q: What about the survivor count [2] of the same compound?
A: 0 of 6

Q: With `CN(C)c1cc(-c2ccccc2)oc(=O)c1Cl` as the compound, how does the survivor count [3] read?
A: 0 of 6

Q: What does the source list for `Brc1ccc2nc3ccccc3c(SCCCCCCSc3c4ccccc4nc4ccc(Br)cc34)c2c1`?
A: survivor count (dose: 120.0 mg/kg/injection, schedule: Q01DX005 (ip), vehicle: Klucel (hydroxypropylcellulose) (HPC)): 6 of 6; survivor count (dose: 240.0 mg/kg/injection, schedule: Q01DX005 (ip), vehicle: Klucel (hydroxypropylcellulose) (HPC)): 6 of 6

Q: `CCCCP(=O)(CCCC)CCCC.CCCCP(=O)(CCCC)CCCC.CCCCP(=O)(CCCC)CCCC.CCCCP(=O)(CCCC)CCCC.[Mn+2].[O-][Cl+3]([O-])([O-])O` was tested. Which T/C [3] did it give?
A: 125 % of control [5 of 6 alive]

Q: And the survivor count (dose: 400.0 mg/kg/injection, schedule: Q01DX009 (ip), vehicle: saline + Tween-80 + alcohol)?
A: 0 of 6

Q: Which survivor count (dose: 200.0 mg/kg/injection, schedule: Q01DX001 (ip), vehicle: saline with Tween-80) does the source give for `Clc1cc2[nH]ccc2c(Cl)n1` here?
A: 0 of 6

Q: `CNc1nc(C)nc(NC)n1` was tested. Which survivor count (dose: 400.0 mg/kg/injection, schedule: Q01DX009 (ip), vehicle: Klucel (hydroxypropylcellulose) (HPC)) did it give?
A: 0 of 6

Q: With `CN(C)c1ccc(C2(c3ccc(N(C)C)cc3)NNC(=O)c3cc(N(C)C)ccc32)cc1` as the compound, how does the survivor count (dose: 12.5 mg/kg/injection, schedule: Q01DX005 (ip), vehicle: saline with Tween-80) read?
A: 6 of 6

Q: What about the survivor count (dose: 25.0 mg/kg/injection, schedule: Q01DX005 (ip), vehicle: saline with Tween-80) of the same compound?
A: 6 of 6

Q: And the survivor count (dose: 50.0 mg/kg/injection, schedule: Q01DX005 (ip), vehicle: saline with Tween-80)?
A: 6 of 6

Q: What about the survivor count (dose: 100.0 mg/kg/injection, schedule: Q01DX005 (ip), vehicle: saline with Tween-80) of the same compound?
A: 6 of 6

Q: What about the survivor count [4] of the same compound?
A: 6 of 6

Q: With `CCCCCCCCCCCCCCP(I)(N(C)C)(N(C)C)N(C)C` as the compound, how does the T/C (dose: 0.38 mg/kg/injection, schedule: Q01DX009 (ip), vehicle: saline with Tween-80) read?
A: 135 % of control

Q: And the T/C (dose: 0.75 mg/kg/injection, schedule: Q01DX009 (ip), vehicle: saline with Tween-80)?
A: 126 and 139 % of control

Q: What about the survivor count (dose: 1.5 mg/kg/injection, schedule: Q01DX009 (ip), vehicle: saline with Tween-80) of the same compound?
A: 3 of 6 and 6 of 6

Q: And the survivor count (dose: 3.0 mg/kg/injection, schedule: Q01DX009 (ip), vehicle: saline with Tween-80)?
A: 2 of 6

Q: How did the survivor count (dose: 90.0 mg/kg/injection, schedule: Q01DX009 (ip), vehicle: saline with Tween-80) turn out when `CSCCC(C(=O)O)N1C(=O)C=CC1=O` (configuration not stated) was run?
A: 0 of 6

Q: What about the survivor count (dose: 180.0 mg/kg/injection, schedule: Q01DX009 (ip), vehicle: saline with Tween-80) of the same compound?
A: 0 of 6

Q: How did the survivor count [5] turn out when `CCCCCCCCN(C)N=Nc1ccccc1C(=O)O` was run?
A: 2 of 6

Q: `CCCCCCN=C(N)N/N=C(\C)c1ccc2c(c1)Cc1ccccc1-2` was tested. Which survivor count (dose: 200.0 mg/kg/injection, schedule: Q04DX002 (ip), vehicle: saline with Tween-80) did it give?
A: 4 of 6

Q: With `CCOC(=O)C1SC(=S)N(c2ccccc2)C1N` (configuration not stated) as the compound, how does the survivor count [6] read?
A: 6 of 6

Q: And the survivor count [7]?
A: 6 of 6

Q: Which results are given for `CCCCN(CCCC)c1cc(C(=O)CCCCCN)c2ccccc2n1`?
A: survivor count (dose: 50.0 mg/kg/injection, schedule: Q01DX005 (ip), vehicle: saline): 1 of 6; survivor count (dose: 100.0 mg/kg/injection, schedule: Q01DX005 (ip), vehicle: saline): 0 of 6

Q: What does the source list for `NC1=NC(=O)N2CC12` (configuration not stated)?
A: T/C (dose: 50.0 mg/kg/injection, schedule: Q01DX009 (ip), vehicle: saline): 126 % of control; T/C [7]: 128 % of control; survivor count (dose: 400.0 mg/kg/injection, schedule: Q01DX009 (ip), vehicle: saline): 0 of 6

Q: Which results are given for `NC(N)=O.NC(N)=O.NC(N)=O.NC(N)=O.NC(N)=O.NC(N)=O.[O-][Cl+3]([O-])([O-])O.[V]`?
A: survivor count (dose: 100.0 mg/kg/injection, schedule: Q04DX003 (ip), vehicle: saline with Tween-80): 6 of 6; survivor count (dose: 200.0 mg/kg/injection, schedule: Q04DX003 (ip), vehicle: saline with Tween-80): 6 of 6; survivor count (dose: 400.0 mg/kg/injection, schedule: Q04DX003 (ip), vehicle: saline with Tween-80): 1 of 6

Q: Which T/C (dose: 100.0 mg/kg/injection, schedule: Q01DX009 (ip), vehicle: saline with Tween-80) does the source give for `CCn1c2ccccc2c2ccc(N=Nc3ccc(N(C)C)cc3)cc21` here?
A: 126 % of control

Q: And the T/C [3]?
A: 133 % of control

Q: And the survivor count [3]?
A: 4 of 6 and 5 of 6

Q: Which results are given for `CCOC(=O)/N=[N+](\[O-])c1ccc([N+](=O)[O-])cc1`?
A: survivor count (dose: 200.0 mg/kg/injection, schedule: Q01DX001 (ip), vehicle: Klucel (hydroxypropylcellulose) (HPC)): 2 of 6; survivor count (dose: 400.0 mg/kg/injection, schedule: Q01DX001 (ip), vehicle: Klucel (hydroxypropylcellulose) (HPC)): 0 of 6

Q: `COc1ccc(/C=N/N2CN(C(C)C(=O)O)C(O)(CCl)N=C2N)cc1OC` (configuration not stated) was tested. Which T/C (dose: 240.0 mg/kg/injection, schedule: Q01DX005 (ip), vehicle: saline) did it give?
A: 126 % of control

Q: With `CCC/C=[CH]/[Hg][Cl]` as the compound, how does the survivor count (dose: 25.0 mg/kg/injection, schedule: Q04DX003 (ip), vehicle: other) read?
A: 2 of 6

Q: How did the survivor count [2] turn out when `CCN(CC)CCNC(=O)C(O)C1CCCCC1` (configuration not stated) was run?
A: 2 of 6

Q: With `NC(=S)c1ccc(Br)cc1` as the compound, how does the survivor count [5] read?
A: 5 of 6

Q: With `O=c1[nH]c2cc([N+](=O)[O-])ccc2nc1/C=C(\O)c1cccc2ccccc12` as the compound, how does the survivor count (dose: 120.0 mg/kg/injection, schedule: Q01DX005 (ip), vehicle: Klucel + Tween-80) read?
A: 6 of 6

Q: For `C1=CC(Cc2ccccc2)NC1` (configuration not stated), which survivor count (dose: 400.0 mg/kg/injection, schedule: Q01DX001 (ip), vehicle: distilled water + alcohol) is on record?
A: 3 of 6

Q: For `CN1CC[N+](C)(Cc2ccc(C[N+]3(C)CC[N+](C)(Cc4ccc(CCl)cc4)CC3)cc2)CC1` (configuration not stated), which survivor count [8] is on record?
A: 2 of 6

Q: What about the survivor count (dose: 200.0 mg/kg/injection, schedule: Q04DX003 (ip), vehicle: saline) of the same compound?
A: 0 of 6

Q: And the survivor count (dose: 400.0 mg/kg/injection, schedule: Q04DX003 (ip), vehicle: saline)?
A: 0 of 6

Q: Which T/C [6] does the source give for `CC(=O)NCCCCCCNC(C)=O` here?
A: 125 % of control

Q: And the survivor count (dose: 4000.0 mg/kg/injection, schedule: Q01DX001 (ip), vehicle: saline)?
A: 0 of 10

Q: And the survivor count (dose: 4000.0 mg/kg/injection, schedule: Q04DX003 (ip), vehicle: saline)?
A: 0 of 10

Q: With `CC1(C)N=C(N)N=C(N)N1c1cccc(CCCCc2ccc(S(=O)(=O)F)cc2)c1` as the compound, how does the survivor count (dose: 50.0 mg/kg/injection, schedule: Q04DX003 (ip), vehicle: saline) read?
A: 6 of 6

Q: And the survivor count [8]?
A: 5 of 6

Q: For `Cc1c(S)cnc2ccccc12`, which survivor count [4] is on record?
A: 5 of 5

Q: For `O=C1CSC(=S)N1c1ccc(Cl)cc1`, which survivor count [5] is on record?
A: 2 of 5

Q: With `CNC(=O)OCc1c(COC(=O)NC)c(-c2ccc(Br)cc2)n(C)c1C` as the compound, how does the T/C (dose: 2.5 mg/kg/injection, schedule: Q01DX009 (ip), vehicle: distilled water + Tween-80) read?
A: 138 % of control

Q: And the T/C (dose: 3.12 mg/kg/injection, schedule: Q01DX009 (ip), vehicle: distilled water + Tween-80)?
A: 142 % of control

Q: And the T/C (dose: 5.0 mg/kg/injection, schedule: Q01DX009 (ip), vehicle: distilled water + Tween-80)?
A: 144 % of control

Q: What about the T/C (dose: 6.25 mg/kg/injection, schedule: Q01DX009 (ip), vehicle: distilled water + Tween-80) of the same compound?
A: 145 % of control

Q: And the T/C (dose: 10.0 mg/kg/injection, schedule: Q01DX009 (ip), vehicle: distilled water + Tween-80)?
A: 146 % of control

Q: What about the T/C (dose: 12.5 mg/kg/injection, schedule: Q01DX009 (ip), vehicle: distilled water + Tween-80) of the same compound?
A: 148 % of control

Q: And the T/C (dose: 25.0 mg/kg/injection, schedule: Q01DX009 (ip), vehicle: distilled water + Tween-80)?
A: 148 % of control

Q: And the survivor count (dose: 40.0 mg/kg/injection, schedule: Q01DX009 (ip), vehicle: distilled water + Tween-80)?
A: 5 of 6

Q: And the survivor count (dose: 50.0 mg/kg/injection, schedule: Q01DX009 (ip), vehicle: distilled water + Tween-80)?
A: 4 of 6

Q: Which survivor count (dose: 30.0 mg/kg/injection, schedule: Q01DX005 (ip), vehicle: saline with Tween-80) does the source give for `O=C1C(=O)c2ncccc2-c2ncccc21` here?
A: 4 of 6

Q: What about the survivor count (dose: 60.0 mg/kg/injection, schedule: Q01DX005 (ip), vehicle: saline with Tween-80) of the same compound?
A: 0 of 6

Q: What about the survivor count [1] of the same compound?
A: 0 of 6

Q: And the survivor count [2]?
A: 0 of 6

Q: For `C=CCN=C(NC(C)(C)C)c1ccccc1`, which survivor count (dose: 200.0 mg/kg/injection, schedule: Q01DX005 (ip), vehicle: Klucel (hydroxypropylcellulose) (HPC)) is on record?
A: 0 of 5
